Source: PubChem BioAssay AID652259 (Drosophila RNAi Screening Center, 2013)
In all, the deposit lists about 22,000 reagents; shown is a random part of those that have a named target and a result. In the full data, 233 (1.1%) are marked active. 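Light values are raw, unnormalised plate reads; the ratio scores behind the reporter calls were not deposited.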 Entries without a mark were called inactive. The numbers tell different reagents against one gene apart. Not given: the amount of reagent, the time to read-out, the dose of the treatment.

- Test: 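Identify new Wingless signalling regulators in fly cells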 (primary screen)
- System: Drosophila clone 8 imaginal disc epithelial cells
- Knock-down reagent: long dsRNA against Drosophila genes
- Conditions: pathway stimulated by co-transfected Wingless expression plasmid
- Read-out: 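Firefly luciferase from a tcf-site Wingless reporter, measured alongside co-transfected Renilla luciferase that tracks transfection; pathway stimulated by a Wingless plasmid; the firefly-to-Renilla ratio is not deposited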
- Direction: firefly reporter light: higher = more Wg reporter light, before normalisation; Renilla control light: higher = more transfected or surviving cells
- Call rule: 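a knock-down is a candidate when at least two out of four statistical tests show it departing from its plate mean; one test alone signals a weak candidate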
- Meaning of the calls: active = candidate regulator (raises or lowers reporter); inactive = not a candidate

no.	gene	reagent no.	firefly reporter light, replicate 1	firefly reporter light, replicate 2	Renilla control light, replicate 1	Renilla control light, replicate 2
1	Cul3 (GeneID 34896)	1	5911		2193	
2	Cul3 (GeneID 34896)	2	5.03e5	6.29e5	2.66e5	2.09e5
3	MED28 (GeneID 43079)	1	17867		16119	
4	Papss (GeneID 40167)	1	2280		1160	
5	CG32483 (GeneID 318050)	1	2321		544	
6	CG14377 (GeneID 41649)	1	14209		3593	
7	hyd (GeneID 41181)	1	11476		2992	
8	Torsin (GeneID 31399)	1	3731	3351	1155	987
9	CG8854 (GeneID 36324)	1	13676		2459	
10	CG12253 (GeneID 47730)	1	7860		2065	
11	CG14423 (GeneID 31287)	1	13736		8877	
12	CG7755 (GeneID 36816)	1	13909		5108	
13	CG43062 (GeneID 12797888)	1	3888		1280	
14	ana1 (GeneID 42927)	1	4432	10627	1957	4457
15	ana1 (GeneID 42927)	2	8.13e5	7.63e5	4.34e5	3.36e5
16	CG31817 (GeneID 260659)	1	13739		6915	
17	CG31817 (GeneID 260659)	2	23930		12839	
18	CG31817 (GeneID 260659)	3	3.34e5	3.38e5	1.17e5	46378
19	Mco4 (GeneID 326221)	1	16455		6829	
20	CG7137 (GeneID 37204)	1	14505		3984	
21	CG1607 (GeneID 43707)	1	2897	5960	1330	2387
22	CG18480 (GeneID 34920)	1	10924		3639	
23	CG12818 (GeneID 41261)	1	9702		2704	
24	lncRNA:CR32658 (GeneID 3772624)	1	20519		10776	
25	SkpE (GeneID 32997)	1	24250		13419	
26	Pp1-87B (GeneID 49260)	1	11975		2166	
27	CG3815 (GeneID 31571)	1	3319	7722	1011	2647
28	Rack1 (GeneID 34070)	1	2103	6618	1078	4215
29	sna (GeneID 34908)	1	3329	6375	972	2598
